These are yes or no findings as the source states them, for the method shown. Some results given as binding are weak or reduced against the parent protein; the word gives no strength.
Target: matrilin-2 (mouse) (mouse (endogenous in mouse cartilage)) (UniProt O08746)
Test: non-reducing SDS-PAGE and Western blot; sequential extracts (buffer 1: 0.15 M NaCl; buffer 2: 1 M NaCl, 10 mM EDTA; buffer 3: 4 M GuHCl, 10 mM EDTA) of knee cartilage of 3-week-old mice, non-reducing 4-13.5% gels; oligomers assigned by apparent size

- binding: binds
B1: matrilin-2 (mouse) (protein, UniProt O08746 24-956)
chain: RERPQARFPSRGRHVRMYPQTALLESSCENKRADLVFIIDSSRSVNTYDYAKVKEFILDILQFLDIGPDVTRVGLLQYGSTVKNEFSLKTFKRKSEVERAVKRMRHLSTGTMTGLAIQYALNIAFSEAEGARPLRENVPRIIMIVTDGRPQDSVAEVAAKARNTGILIFAIGVGQVDLNTLKAIGSEPHKDHVFLVANFSQIESLTSVFQNKLCTVHMCSVLEHNCAHFCLNTPGSYICKCKQGYILSTDQKTCRIQDLCATEDHGCEQLCVNMLGSFVCQCYSGYTLAEDGKRCTAVDYCASENHGCEHECVNAESSYLCRCHEGFALNSDKKTCSKIDYCASSNHGCQHECVNAQTSALCRCLKGFMLNPDRKTCRRINYCALNKPGCEHECVNTEEGHYCRCRQGYNLDPNGKTCSRVDHCAQQDHGCEQLCLNTEESFVCQCSEGFLINDDLKTCSRADYCLLSNHGCEYSCVNTDKSFACQCPEGHVLRSDGKTCAKLDSCALGDHGCEHSCVSSEDSFVCQCFEGYILRDDGKTCRRKDVCQDVNHGCEHLCVNSGESYVCKCLEGFRLAEDGKRCRRKNVCKSTQHGCEHMCVNNGNSYLCRCSEGFVLAEDGKHCKRCTEGPIDLVFVIDGSKSLGEENFETVKHFVTGIIDSLAVSPKAARVGLLQYSTQVRTEFTLRGFSSAKEMKKAVTHMKYMGKGSMTGLALKHMFERSFTQVEGARPPSTQVPRVAIVFTDGRAQDDVSEWASKAKANGITMYAVGVGKAIEEELQEIASEPIDKHLFYAEDFSTMGEISEKLKEGICEALEDSGGRQDSAAWDLPQQAHQPTEPEPVTIKIKDLLSCSNFAVQHRFLFEEDNLSRSTQKLFHSTKSSGNPLEESQDQCKCENLILFQNVANEEVRKLTQRLEEMTQRMEALENRLKYR

Reference: publication PMC3744072
